Reference: PubChem BioAssay AID504808 (Drosophila RNAi Screening Center, 2011)
The screen tested about 21,000 reagents; below is an unselected part of those with a known target gene and a result. Of all reagents, 18 (0.084%) are marked active. 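Raw counts without plate normalisation, one of two replicates; the ratio scores behind the calls were not deposited.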 Names joined by + are all predicted targets of the reagent. The record does not give: the amount of reagent, the time to read-out.

- Aim: 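Chromatin factors that keep E2F targets switched off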 (primary screen)
- Cells: Drosophila S2 cells
- Knock-down reagent: long dsRNA against Drosophila genes
- Measured: 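Dual luciferase plate measurements; E2F-specific signal taken as firefly over Renilla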
- Direction: E2F firefly: higher = more E2F reporter activity; Renilla normaliser: higher = more normaliser reporter signal
- Rule for the call: 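Called active if the normalised E2F reporter went up by over 50%; the cutoff is arbitrary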

PGAP2 scored E2F firefly, rep 1 = 80489; Renilla normaliser, rep 1 = 3541; inactive.
Against CG7264 the deposit lists E2F firefly, rep 1 = 1.13e5; Renilla normaliser, rep 1 = 6522; inactive.
Pxd gave E2F firefly, rep 1 = 1.22e5; Renilla normaliser, rep 1 = 5932; inactive.
Against Osi20 the deposit lists E2F firefly, rep 1 = 1.33e5; Renilla normaliser, rep 1 = 5261; inactive.
Knock-down of RpLP1 came out at: E2F firefly, rep 1 = 1.23e5; Renilla normaliser, rep 1 = 5851; inactive.
Knock-down of CNT1 + CG13742 gave: E2F firefly, rep 1 = 1.48e5; Renilla normaliser, rep 1 = 5577; inactive.
With knock-down of JYalpha, the screen gave E2F firefly, rep 1 = 1.12e5; Renilla normaliser, rep 1 = 5636; inactive.
Against Lamtor4, the entry reads E2F firefly, rep 1 = 93528; Renilla normaliser, rep 1 = 4071; inactive.
After knock-down of CG14913, the record shows E2F firefly, rep 1 = 1.62e5; Renilla normaliser, rep 1 = 4953; inactive.
CG11396 showed E2F firefly, rep 1 = 1.31e5; Renilla normaliser, rep 1 = 5397; inactive.
For PTP-ER, the entry reads E2F firefly, rep 1 = 73209; Renilla normaliser, rep 1 = 3782; inactive.
Against QIL1, the entry reads E2F firefly, rep 1 = 1.11e5; Renilla normaliser, rep 1 = 7884; inactive.

2 entries from above in another layout.
gene	E2F firefly, rep 1	Renilla normaliser, rep 1	Outcome
CG14913	1.62e5	4953	inactive
CG11396	1.31e5	5397	inactive
